Measurements published in the supplement of paper PMC12819154, “High-throughput peptide-centric local stability assay extends protein–ligand identification to membrane proteins, tissues and bacteria” (Nature Structural & Molecular Biology, 2025).
This is one part of the list. Most entries show no effect beyond the scatter of the controls.

By UniProt entry, the sequences of proteins in these tests, tags left out. Where a name states a change or a piece, a line headed by the entry shows the natural chain unless it says otherwise.
UniProt Q9R1Q8: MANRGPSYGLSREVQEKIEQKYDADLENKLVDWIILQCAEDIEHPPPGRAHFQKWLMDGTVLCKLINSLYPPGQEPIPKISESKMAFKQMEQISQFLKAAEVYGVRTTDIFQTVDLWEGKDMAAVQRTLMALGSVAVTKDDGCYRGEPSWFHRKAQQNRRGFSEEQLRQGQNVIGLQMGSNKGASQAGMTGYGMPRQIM
UniProt Q9WU40: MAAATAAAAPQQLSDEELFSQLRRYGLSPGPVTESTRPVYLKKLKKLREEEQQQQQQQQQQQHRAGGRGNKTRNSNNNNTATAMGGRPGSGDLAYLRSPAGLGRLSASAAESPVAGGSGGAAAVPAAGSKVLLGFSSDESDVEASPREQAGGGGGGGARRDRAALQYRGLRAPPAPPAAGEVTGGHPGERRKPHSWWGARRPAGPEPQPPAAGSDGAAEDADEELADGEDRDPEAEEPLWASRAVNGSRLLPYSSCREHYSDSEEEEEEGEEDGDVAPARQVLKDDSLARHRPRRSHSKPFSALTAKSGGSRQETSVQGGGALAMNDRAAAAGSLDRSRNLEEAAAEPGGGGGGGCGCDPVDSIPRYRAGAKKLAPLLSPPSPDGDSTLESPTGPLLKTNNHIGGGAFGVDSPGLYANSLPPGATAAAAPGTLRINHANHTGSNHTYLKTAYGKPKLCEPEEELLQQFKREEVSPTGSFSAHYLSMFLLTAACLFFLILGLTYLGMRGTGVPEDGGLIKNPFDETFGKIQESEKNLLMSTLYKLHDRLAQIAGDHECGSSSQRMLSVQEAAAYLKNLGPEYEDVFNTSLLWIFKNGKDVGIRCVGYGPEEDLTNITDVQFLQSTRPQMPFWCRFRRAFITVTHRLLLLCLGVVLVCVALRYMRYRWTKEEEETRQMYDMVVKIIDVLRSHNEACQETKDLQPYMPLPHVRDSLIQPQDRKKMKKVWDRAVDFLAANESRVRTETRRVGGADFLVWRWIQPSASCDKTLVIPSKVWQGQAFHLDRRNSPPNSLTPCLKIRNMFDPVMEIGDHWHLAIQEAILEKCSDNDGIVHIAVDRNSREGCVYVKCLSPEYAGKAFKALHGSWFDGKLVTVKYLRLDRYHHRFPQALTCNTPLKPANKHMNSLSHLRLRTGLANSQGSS
UniProt Q9WUZ9: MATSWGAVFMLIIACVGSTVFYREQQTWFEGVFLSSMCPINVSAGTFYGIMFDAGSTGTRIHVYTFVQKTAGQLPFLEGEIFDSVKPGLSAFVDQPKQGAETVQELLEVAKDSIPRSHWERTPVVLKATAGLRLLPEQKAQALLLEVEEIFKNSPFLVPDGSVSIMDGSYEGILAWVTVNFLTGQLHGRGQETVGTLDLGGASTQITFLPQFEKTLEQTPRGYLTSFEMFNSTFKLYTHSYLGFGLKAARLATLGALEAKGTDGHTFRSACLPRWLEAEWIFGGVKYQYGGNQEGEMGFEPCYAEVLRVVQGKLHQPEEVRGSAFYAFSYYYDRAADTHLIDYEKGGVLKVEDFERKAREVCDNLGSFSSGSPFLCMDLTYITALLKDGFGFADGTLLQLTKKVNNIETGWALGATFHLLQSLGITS
UniProt Q9WUB3: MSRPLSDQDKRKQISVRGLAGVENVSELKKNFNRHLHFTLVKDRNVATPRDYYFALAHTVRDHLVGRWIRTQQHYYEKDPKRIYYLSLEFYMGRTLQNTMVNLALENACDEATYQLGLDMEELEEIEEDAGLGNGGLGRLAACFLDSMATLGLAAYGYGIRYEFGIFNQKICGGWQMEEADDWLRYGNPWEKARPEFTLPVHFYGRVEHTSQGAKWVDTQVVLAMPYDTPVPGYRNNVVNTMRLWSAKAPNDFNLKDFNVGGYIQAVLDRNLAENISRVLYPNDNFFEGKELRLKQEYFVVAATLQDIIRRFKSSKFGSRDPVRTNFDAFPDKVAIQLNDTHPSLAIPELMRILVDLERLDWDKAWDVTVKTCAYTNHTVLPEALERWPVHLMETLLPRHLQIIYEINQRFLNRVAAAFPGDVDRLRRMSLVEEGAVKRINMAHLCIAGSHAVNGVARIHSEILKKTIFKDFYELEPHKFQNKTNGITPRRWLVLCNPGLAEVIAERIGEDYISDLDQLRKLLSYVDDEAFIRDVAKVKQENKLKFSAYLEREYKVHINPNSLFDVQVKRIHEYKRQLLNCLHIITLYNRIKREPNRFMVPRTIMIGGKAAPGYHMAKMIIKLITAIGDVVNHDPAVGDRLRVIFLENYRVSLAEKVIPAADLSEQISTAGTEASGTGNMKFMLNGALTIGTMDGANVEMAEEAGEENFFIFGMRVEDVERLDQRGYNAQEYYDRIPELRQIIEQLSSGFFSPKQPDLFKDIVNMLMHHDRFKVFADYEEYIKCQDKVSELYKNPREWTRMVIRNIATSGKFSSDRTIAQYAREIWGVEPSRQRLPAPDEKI
UniProt Q9QYB1: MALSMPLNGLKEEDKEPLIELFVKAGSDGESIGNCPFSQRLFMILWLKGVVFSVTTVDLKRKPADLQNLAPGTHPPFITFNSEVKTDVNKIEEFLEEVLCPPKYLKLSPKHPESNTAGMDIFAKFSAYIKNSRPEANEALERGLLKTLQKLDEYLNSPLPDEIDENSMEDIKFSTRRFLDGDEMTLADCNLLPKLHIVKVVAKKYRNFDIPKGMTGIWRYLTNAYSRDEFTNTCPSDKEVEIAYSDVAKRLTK
UniProt Q9QZC2: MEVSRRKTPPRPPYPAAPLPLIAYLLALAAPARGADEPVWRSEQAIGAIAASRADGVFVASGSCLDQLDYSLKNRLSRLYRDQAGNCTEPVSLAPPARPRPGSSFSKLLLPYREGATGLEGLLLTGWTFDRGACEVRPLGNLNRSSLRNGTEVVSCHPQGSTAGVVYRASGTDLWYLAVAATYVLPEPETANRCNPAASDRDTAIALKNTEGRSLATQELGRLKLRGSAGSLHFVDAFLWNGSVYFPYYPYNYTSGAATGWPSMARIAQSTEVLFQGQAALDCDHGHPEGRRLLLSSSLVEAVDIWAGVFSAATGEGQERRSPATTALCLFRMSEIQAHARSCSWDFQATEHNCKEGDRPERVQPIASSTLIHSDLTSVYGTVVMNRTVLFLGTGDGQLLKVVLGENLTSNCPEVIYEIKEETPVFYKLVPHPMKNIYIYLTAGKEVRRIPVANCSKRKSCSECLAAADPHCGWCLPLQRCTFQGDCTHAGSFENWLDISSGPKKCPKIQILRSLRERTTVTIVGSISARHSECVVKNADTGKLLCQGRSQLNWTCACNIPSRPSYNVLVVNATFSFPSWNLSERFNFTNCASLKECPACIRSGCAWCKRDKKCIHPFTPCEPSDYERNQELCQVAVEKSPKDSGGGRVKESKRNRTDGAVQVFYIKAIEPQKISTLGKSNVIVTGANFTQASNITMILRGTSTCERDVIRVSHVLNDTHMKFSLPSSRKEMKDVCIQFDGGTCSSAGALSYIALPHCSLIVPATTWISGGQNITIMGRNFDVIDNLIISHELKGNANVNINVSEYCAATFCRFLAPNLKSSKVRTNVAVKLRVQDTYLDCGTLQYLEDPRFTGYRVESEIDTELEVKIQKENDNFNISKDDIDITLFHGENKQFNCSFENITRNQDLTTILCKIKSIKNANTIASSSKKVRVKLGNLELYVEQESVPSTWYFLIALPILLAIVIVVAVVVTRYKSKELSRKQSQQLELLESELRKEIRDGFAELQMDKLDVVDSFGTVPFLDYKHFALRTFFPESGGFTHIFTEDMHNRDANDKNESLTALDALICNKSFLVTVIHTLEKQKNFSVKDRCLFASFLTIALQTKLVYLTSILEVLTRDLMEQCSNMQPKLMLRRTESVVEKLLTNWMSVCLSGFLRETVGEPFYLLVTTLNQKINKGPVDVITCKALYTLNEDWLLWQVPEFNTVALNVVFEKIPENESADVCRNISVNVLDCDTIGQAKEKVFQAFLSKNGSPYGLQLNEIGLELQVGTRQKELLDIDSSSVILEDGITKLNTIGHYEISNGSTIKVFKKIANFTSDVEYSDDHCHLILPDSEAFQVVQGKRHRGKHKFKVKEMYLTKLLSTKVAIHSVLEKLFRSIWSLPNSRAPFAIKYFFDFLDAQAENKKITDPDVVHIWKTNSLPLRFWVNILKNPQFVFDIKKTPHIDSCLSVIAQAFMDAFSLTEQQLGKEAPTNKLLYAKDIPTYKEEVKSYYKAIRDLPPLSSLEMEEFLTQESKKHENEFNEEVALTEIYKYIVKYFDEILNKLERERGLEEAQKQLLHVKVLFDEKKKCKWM
UniProt Q9QXE0: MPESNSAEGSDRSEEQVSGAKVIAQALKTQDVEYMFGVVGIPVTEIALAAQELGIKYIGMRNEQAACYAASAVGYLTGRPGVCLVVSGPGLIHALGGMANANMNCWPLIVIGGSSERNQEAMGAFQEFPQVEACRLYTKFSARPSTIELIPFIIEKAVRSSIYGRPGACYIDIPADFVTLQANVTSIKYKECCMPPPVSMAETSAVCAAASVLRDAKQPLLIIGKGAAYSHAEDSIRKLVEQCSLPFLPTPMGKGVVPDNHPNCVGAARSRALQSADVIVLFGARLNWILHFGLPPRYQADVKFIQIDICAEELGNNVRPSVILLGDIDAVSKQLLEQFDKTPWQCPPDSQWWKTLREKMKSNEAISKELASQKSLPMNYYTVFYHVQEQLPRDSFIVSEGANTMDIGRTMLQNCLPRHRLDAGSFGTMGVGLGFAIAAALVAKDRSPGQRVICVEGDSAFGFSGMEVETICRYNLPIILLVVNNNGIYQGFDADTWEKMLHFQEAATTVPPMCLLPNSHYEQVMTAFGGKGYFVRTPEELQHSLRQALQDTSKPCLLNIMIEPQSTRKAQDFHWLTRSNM
UniProt Q9QZS2: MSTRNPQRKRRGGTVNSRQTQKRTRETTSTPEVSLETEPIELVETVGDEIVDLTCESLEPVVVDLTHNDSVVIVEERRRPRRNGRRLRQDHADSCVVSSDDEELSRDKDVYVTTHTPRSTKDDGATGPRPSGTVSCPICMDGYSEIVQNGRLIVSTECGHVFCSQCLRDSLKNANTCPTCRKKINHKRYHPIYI
UniProt Q9R098: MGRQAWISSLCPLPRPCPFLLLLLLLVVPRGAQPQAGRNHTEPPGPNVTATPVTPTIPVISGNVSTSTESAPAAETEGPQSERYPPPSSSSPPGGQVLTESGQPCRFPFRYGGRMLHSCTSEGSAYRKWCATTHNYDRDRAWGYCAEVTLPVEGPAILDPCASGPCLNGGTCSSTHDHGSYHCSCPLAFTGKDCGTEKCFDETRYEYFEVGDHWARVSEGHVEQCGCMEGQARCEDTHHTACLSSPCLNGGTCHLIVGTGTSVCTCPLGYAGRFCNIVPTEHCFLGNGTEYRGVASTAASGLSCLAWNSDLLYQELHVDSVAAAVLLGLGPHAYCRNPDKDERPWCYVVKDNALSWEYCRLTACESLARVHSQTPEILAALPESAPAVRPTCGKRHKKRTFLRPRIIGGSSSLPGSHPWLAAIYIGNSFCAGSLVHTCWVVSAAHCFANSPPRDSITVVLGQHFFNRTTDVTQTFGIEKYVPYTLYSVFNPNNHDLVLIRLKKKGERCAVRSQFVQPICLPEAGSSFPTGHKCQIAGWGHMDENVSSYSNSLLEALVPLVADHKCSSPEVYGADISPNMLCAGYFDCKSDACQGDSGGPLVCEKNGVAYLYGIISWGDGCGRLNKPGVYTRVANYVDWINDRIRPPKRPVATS

Each target was assayed with CN[C@@H]1C[C@H]2O[C@@](C)([C@@H]1OC)n1c3ccccc3c3c4c(c5c6ccccc6n2c5c31)C(=O)NC4 [staurosporine] (assay: log2 fold change of tryptic peptide abundance, ligand vs vehicle (limited proteolysis) (log2 ratio); higher = more trypsin-susceptible (destabilized)). Settings: ligand concentration: 20 uM; sample: mouse liver crude lysate; replicate design: treated separately.

Row | Target | log2 fold change
1 | UniProt Q9R1Q8 (peptide sequence: ANRGPSYGLSR, peptide start residue: 2) | 0.0365
2 | UniProt Q9WU40 (peptide sequence: QMYDMVVK, peptide start residue: 675) | 0.694
3 | UniProt Q9WUZ9 (peptide sequence: GGVLKVEDFER, peptide start residue: 346) | 0.49
4 | UniProt Q9WUB3 (peptide sequence: GLAGVENVSELKK, peptide start residue: 18) | 0.128
5 | UniProt Q9QYB1 (peptide sequence: NSRPEANEALER, peptide start residue: 131) | -0.0717
6 | UniProt Q9QZC2 (peptide sequence: VKEMYLTK, peptide start residue: 1352) | 0.32
7 | UniProt Q9QXE0 (peptide sequence: KAQDFHWLTR, peptide start residue: 569) | 0.0775
8 | UniProt Q9QZS2 (peptide sequence: DKDVYVTTHTPR, peptide start residue: 107) | 0.0879
9 | UniProt Q9R098 (peptide sequence: KWCATTHNYDRDR, peptide start residue: 128) | -0.369
